Assay results: paper doi:10.1101/2020.12.08.415711
Where two headings read alike, the source gives them in different places. No constants are given. Whether binding was seen depends on the method and setting. In cells and extracts the contact can be indirect. Some binding calls cover weakened binding; strength is not graded here.

Chains of the proteins cited; added tags and fusions are not shown.
UniProt Q9SXA1: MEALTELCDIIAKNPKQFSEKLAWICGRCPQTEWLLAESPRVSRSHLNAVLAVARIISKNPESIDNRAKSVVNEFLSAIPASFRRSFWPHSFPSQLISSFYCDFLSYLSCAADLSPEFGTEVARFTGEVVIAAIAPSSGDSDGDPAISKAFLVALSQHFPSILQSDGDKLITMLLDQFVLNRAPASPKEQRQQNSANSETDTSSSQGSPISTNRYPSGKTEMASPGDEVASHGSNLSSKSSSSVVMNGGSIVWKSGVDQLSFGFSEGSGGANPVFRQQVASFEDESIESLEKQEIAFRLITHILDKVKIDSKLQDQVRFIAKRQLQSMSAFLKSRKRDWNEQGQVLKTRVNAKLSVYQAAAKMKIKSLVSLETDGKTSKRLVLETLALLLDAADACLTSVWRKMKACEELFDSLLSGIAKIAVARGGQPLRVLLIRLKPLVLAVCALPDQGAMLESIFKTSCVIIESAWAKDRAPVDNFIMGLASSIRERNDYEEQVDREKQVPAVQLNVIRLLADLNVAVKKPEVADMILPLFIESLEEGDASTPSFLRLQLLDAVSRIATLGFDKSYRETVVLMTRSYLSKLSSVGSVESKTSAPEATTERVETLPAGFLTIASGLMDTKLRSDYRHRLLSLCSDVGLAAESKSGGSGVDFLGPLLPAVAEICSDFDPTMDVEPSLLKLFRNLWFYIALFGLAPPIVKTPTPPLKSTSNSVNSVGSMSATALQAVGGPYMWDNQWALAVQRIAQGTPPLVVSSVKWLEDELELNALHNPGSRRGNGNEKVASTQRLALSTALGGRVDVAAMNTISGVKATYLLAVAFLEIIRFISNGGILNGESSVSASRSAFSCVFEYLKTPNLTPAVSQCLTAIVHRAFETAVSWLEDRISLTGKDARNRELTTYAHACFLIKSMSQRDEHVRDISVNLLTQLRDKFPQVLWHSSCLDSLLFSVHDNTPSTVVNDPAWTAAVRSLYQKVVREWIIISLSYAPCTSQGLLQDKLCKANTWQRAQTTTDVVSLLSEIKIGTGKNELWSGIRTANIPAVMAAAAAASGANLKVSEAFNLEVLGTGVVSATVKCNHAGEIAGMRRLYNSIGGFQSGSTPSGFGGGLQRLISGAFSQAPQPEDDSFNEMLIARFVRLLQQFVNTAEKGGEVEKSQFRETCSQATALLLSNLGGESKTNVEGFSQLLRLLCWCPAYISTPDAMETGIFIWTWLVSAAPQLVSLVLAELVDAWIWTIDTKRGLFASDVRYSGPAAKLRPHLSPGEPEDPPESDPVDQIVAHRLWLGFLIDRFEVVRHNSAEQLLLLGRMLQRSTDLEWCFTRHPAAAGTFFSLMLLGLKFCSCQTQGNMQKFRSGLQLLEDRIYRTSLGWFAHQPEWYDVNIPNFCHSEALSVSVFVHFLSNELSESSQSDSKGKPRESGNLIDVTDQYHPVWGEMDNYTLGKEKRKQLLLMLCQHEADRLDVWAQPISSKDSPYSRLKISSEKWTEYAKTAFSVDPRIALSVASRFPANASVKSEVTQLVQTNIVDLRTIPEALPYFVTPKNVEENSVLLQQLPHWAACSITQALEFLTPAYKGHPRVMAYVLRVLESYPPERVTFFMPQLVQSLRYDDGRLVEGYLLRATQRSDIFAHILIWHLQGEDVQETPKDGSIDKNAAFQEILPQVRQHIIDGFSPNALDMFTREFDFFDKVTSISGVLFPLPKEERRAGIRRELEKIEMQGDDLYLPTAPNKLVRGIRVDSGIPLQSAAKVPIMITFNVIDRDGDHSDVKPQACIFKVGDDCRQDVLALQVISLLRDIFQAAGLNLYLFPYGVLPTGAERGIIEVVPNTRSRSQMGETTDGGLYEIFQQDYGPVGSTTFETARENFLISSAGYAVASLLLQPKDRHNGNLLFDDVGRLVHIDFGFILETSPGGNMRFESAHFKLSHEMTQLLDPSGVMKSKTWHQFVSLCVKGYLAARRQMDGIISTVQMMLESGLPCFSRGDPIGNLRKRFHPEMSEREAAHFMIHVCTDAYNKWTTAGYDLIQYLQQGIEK

B1: NPGR2, endogenous (protein, UniProt Q66GN3 1-739)
chain: MKNSEIRPEKLHLRKLRKSLRKIRMKCLCSGEQMRHREEEDKKSEVGVGRDYNGSSALSTAESENAKKLDNGNIEEAELSLRETSSLNYEEARALLGRIEYQKGNIEAALRVFEGIDINGITVKMKTALTVREDRKHRRRSKGGFSTAPSPAMSKHAVSLLFEAIFLKAKSLQRLGRFQEAAESCRVILDIVETSLAEGASDNVTGDIKLQETLTKAVELLPELWKLADSPRDAILSYRRALLNHWKLDPETTARIQKEYAVFLLYSGEEAVPPNLRSQTEGSFIPRNNVEEAILLLMLLLRKVNLKRISWDAAILDHLSFALTIAGDLTALAKQFEELSPELLDQRELYHTLSLCYQGAGEGLVALGLLRKLFSEREDPNRTSGLLMASKICGERSGLAEEGLDYARKAIGNLGKECSQLDGAARFVLGITLTESSRMAVTETERIARQSEGIQALESADMTNPRVVHRLALENAEQRKLDSALAYAKEALKLGAESDLEVWLLLARVLSAQKRFSDAETIVDAALNETGKWEQGKLLRLKAKLRLAKGEVKDAIKTYTQLLALLQVQSKSFNSAKKLPKGYVKELMSLELGTWHDLAHIYINLSQWRDAESCLSRSRLIAPYSSVRYHIEGVLYNRRGQLEEAMEAFTTALDIDPMHVPSLTSKAEILLEVGNRSGIAVVRSFLMEALRIDRLNHSAWYNLGKMFKAEGSVSSMQEAVECFQAAVTLEETMPVEPFR

Tests used:
Test in all cases: co-IP
[1] = target: T1, NPGR2-mCITRINE (Arabidopsis thaliana) (UniProt Q66GN3)
T1 sequence: B1 chain

Lti6b-mCITRINE [2] = target: T2, Lti6b-mCITRINE (UniProt Q9ZNS6)
T2 sequence: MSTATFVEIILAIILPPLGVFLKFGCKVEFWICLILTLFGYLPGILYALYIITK

Lti6b-mCITRINE [3] = target: T2, Lti6b-mCITRINE; remark: listed apart in the source

Molecule | binding [1] | binding (Lti6b-mCITRINE [2]) | binding (Lti6b-mCITRINE [3])
PI4Kα1, endogenous (from UniProt Q9SXA1 1-2028) (enzyme) | binds | no binding | –
B1 | – | – | no binding
